Measurements published in PubChem BioAssay AID1347423 (Functional Genomics Laboratory (NCATS/FGL), 2020).
In all, about 52,000 sequences went through this assay and about 210 (0.4%) were called active.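 Rule for the calls: active = gene whose silencing raises cell survival under the drug, median off-target-corrected z-score across its silencing RNAs 2 or more; inactive = the rest.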 This is one part of the list.

Test: Resistance to Poly (ADP-Ribose) Polymerase inhibitor: Gene Identification via Genome-wide siRNA Screen
Conditions: mouse BRCA2 R2336H ES cells, olaparib, CellTiter-Glo viability; hits give high values
Procedure, shortened: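 Genome-wide siRNA screen (3 siRNAs/gene, 20 nM) in mouse ES cells carrying hypomorphic BRCA2 R2336H; olaparib 500 nM added 48 h post-transfection, CellTiter-Glo viability 72 h later. Normalized to plate-median negative control; MAD z-scores, gene median, seed-adjusted.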

| Sequence | z-score |
| --- | --- |
| GCAUCAGAUGCGUUUGCUUTT against Blm | inactive: 2.49 |
| GGGAAUCUCUACAGACCCUTT against B130017P16Rik | inactive: 0.243 |
| GGGAUGGAGGAGGAGCUUATT against Bad | inactive: 0.544 |
| GGAAAUGAAGGUUGCAAUGTT against Olfr1317 | inactive: 0.0452 |
| GCUUCCUUCUUCUUGUCCATT against V1ra6 | inactive: -0.274 |
| GGUUUUGGUCUCACUUUAATT against Pdzx | inactive: -0.522 |
| GGAUCUUGAAGCCAAAUACTT against 0610011N22Rik | inactive: -1.97 |
| GGCCUUUGUCCUUGUCUUCTT against Syvn1 | inactive: -0.572 |
| GCUUAAAACCAUGUCUGAUTT against Ddef1 | inactive: -0.527 |
| GAAACUGCUGCCUCACAUCTT against Arbp | inactive: -1.38 |
| GGUCUCCAUCACAUUCAAGTT against BC024139 | inactive: 2.21 |
| GGUGAACCCUUUGAGGAAGTT against Gstt3 | inactive: 0.0605 |
| GGCACUGAGGUUGUUCAGGTT against Eif3s3 | inactive: -0.713 |
| GGGCUGUUAUUUCAAGAAATT against Galnt13 | inactive: 1.63 |
| CCUACAUGUAAUCCAUUUUTT against 1700093E07Rik | inactive: 0.379 |
| GGGAAUGUGACCAUCAAGCTT against Arl10b | inactive: -0.184 |
| GCCACACGACAUGUGAUUCTT against 4932409I22Rik | inactive: 0.291 |
| GGAUUUCUAGACUUUAGGATT against Xcr1 | inactive: 0.711 |
| GGUAUCCCUAACUGGCAGUTT against Tro | inactive: 0.104 |
| CGACGUGAUCACCAAAGGCTT against Map3k14 | inactive: -1.65 |
| GGAAACUUUGUUAAAACAGTT against Tank | inactive: -0.299 |
| GGUGGUUCCCAUUUCCUUATT against BC004004 | inactive: 1.1 |
| GGCACGGUGGUGAUAACUUTT against Gpr77 | inactive: -1.02 |
| GCCGUACUUUGUCUUUGACTT against 1700020B09Rik | inactive: 0.994 |
| GGUCAUCUCUCUUUAGCCUTT against Gsg2 | inactive: -1.12 |
| GGAGCAGGAUUUUGGCAGUTT against Casp2 | inactive: -0.185 |

Some of the entries so far, with each value named:
GGAAAUGAAGGUUGCAAUGTT against Olfr1317
  z-score: inactive: 0.0452
GCUUCCUUCUUCUUGUCCATT against V1ra6
  z-score: inactive: -0.274
GGUUUUGGUCUCACUUUAATT against Pdzx
  z-score: inactive: -0.522

(cont.)

| Sequence | z-score |
| --- | --- |
| GGAAUGUUUGGUGCUAUGATT against BC011209 | inactive: -1.9 |
| GGAAAUAGUUGGUUUUGAATT against Slfn1 | inactive: 0.273 |
| CCAGAUACAUCUACAACCGTT against H2-Ab1 | inactive: 1 |
| GGUCAAUAUGCAGAAAAUGTT against Eif4g2 | inactive: -1.77 |
| CCACUAUGUUCUGUGGCAATT against Olfr736 | inactive: -0.18 |
| GGCAUUUUCUUAUUCAUUGTT against 4933414I15Rik | inactive: 0.962 |
| GGAAAUGAACAUGUGACUATT against 4930553M18Rik | inactive: 0.273 |
| GGGCAAAUGUAAAAAGACUTT against Fst | inactive: -1.47 |
| CGUGUUACAUCAUCAGUUCTT against Gja9 | inactive: 1.28 |
| GCACUUUCAGCGGUCUCAUTT against Card14 | inactive: -1.04 |
| GGUGUUUGAAGAGCUGACATT against Pde6b | inactive: 1.57 |
| CCUUGCACUUACCGCUCCUTT against E130012K09 | inactive: 0.754 |
| GGUAUCACGAGCAUUCUCATT against Rrh | inactive: -0.655 |
| GGUAUACGUGGACAACAGCTT against Esr1 | inactive: -0.67 |
| CGCAGAGAUUGUGCGGACUTT against Myg1 | inactive: -1.71 |
| CCACGCAAAAGAAUAUAAGTT against Mtss1 | inactive: 0.0711 |
| CCCAACAUUUCCCUAUGUCTT against Ingaprp | inactive: 1.1 |
| GGCCAAAACCUAUGAAUUCTT against Cbx8 | inactive: 1.11 |
| GGAGAUUCUCUCUGAUCAATT against D16Ertd480e | inactive: -1.15 |
| CCUCGAUAGGUUAGUGACATT against LOC382137 | inactive: -2.16 |
| CCUACAGCCACCUAAUAGATT against Olfr1196 | inactive: -0.362 |
| GGAAGUCUCGAUAUCAUUCTT against Cd300lg | inactive: -0.699 |
| GCUAGAAUCAUGGCAAAUATT against 9530002B09Rik | inactive: -1.13 |
| GGACCAGUUUAUCCAGCACTT against Mc3r | inactive: 0.21 |
| GGAUGGUAGAGUCUCUUAUTT against Olfr414 | inactive: -1.22 |
| GCCAAGAAUAGCAUUACUGTT against 3830405G04Rik | inactive: -0.0592 |

| Sequence | z-score |
| --- | --- |
| CGAAAUUUAACUUGAACAGTT against 4930547C10Rik | inactive: -0.544 |
| CCUGAUGCCAGAAUCUAAGTT against Ermap | inactive: 0.262 |
| GGUUAAUUCCAACAAAGCATT against Orc4l | inactive: -0.209 |
| GGCAAUCAUGGACCUUAUUTT against 1700030K01Rik | inactive: -1.63 |
| GGAUGUGCCUGCCACUAUUTT against Cyp1b1 | inactive: 0.709 |
| GGAUGGAUCGUUUCUUAUUTT against Blnk | inactive: -0.233 |
| CGGCUCACAAAUAUACAGUTT against Pira1 | inactive: -0.438 |
| CGUUGUUCAAAGAUUCUCCTT against 2310020F24Rik | inactive: 0.706 |
| GCGCUAGAAGGCCAGAUAUTT against Orm3 | inactive: -0.322 |
| CGCACACAGUCGUAUGUACTT against Ryr1 | inactive: 0.21 |
| GGAUGUUUUUGAACUACAUTT against Brdt | inactive: -0.0736 |
| GCAAAAAACUACUUUUACCTT against Chrna1 | inactive: 1.19 |
| CCUUUUUGAUGCCAUCGUUTT against BC056929 | inactive: 1.78 |
| GGUAUGGAAGAAGAAGCGCTT against Phlda2 | inactive: 0.839 |
| GGGUUCAAAUAGUUUACCUTT against Tmem33 | inactive: 1 |
| CCUAGAGAUGUCAGUACUATT against Tas2r123 | inactive: -0.73 |
| GGAACUUGUACAAAUAGGATT against BC005662 | inactive: 0.313 |
| GGGAUUGAAAGAAGAAAAGTT against 1700029P11Rik | inactive: -1.21 |
| GCACCUCUACACUUUAGAUTT against Gnb2-rs1 | inactive: -0.0472 |
| GGAGAUGCCUGGUGAUAAATT against BC037393 | inactive: -1.64 |
| GGUUAUGGCCUGUAUUAGATT against Hsd17b13 | inactive: -0.526 |
| GCAGCCUAUUACCUCAGACTT against B830017A01Rik | inactive: -0.64 |
| GCUAAAAUUAGAGUGUCUGTT against Gtf2h2 | inactive: 2.11 |
| CCGAUGGUCGCACUUCUUATT against Olfr560 | inactive: -0.681 |
| GGACGGAGGAUUCUGAAACTT against D030028O16Rik | inactive: 1.45 |
| CCAUUGAGGGAAAUAAACUTT against Fabp2 | inactive: 0.528 |

Pulled one by one from the entries so far (4):

| Sequence | z-score |
| --- | --- |
| GGACGGAGGAUUCUGAAACTT against D030028O16Rik | inactive: 1.45 |
| GGUUAAUUCCAACAAAGCATT against Orc4l | inactive: -0.209 |
| CCGAUGGUCGCACUUCUUATT against Olfr560 | inactive: -0.681 |
| GGCAAUCAUGGACCUUAUUTT against 1700030K01Rik | inactive: -1.63 |

Next part

| Sequence | z-score |
| --- | --- |
| GGACUGUAUGUGGAAUGGCTT against Bmyc | inactive: -0.789 |
| GGCAAACGAGAAGAAGGAGTT against Serf2 | inactive: -1.35 |
| GGAAGAAGAUAAAGAGAAATT against Gtf2a1 | inactive: -0.0278 |
| GGAUUUAUAUCUGAAGUCUTT against Bach1 | inactive: 0.425 |
| GGUGAACGGAUAUCCUGUGTT against Pdzk2 | inactive: -0.386 |
| GGGAUUUUACUCAGGAUUATT against 4930518F03Rik | inactive: 1.04 |
| GCUAUGUGUGGCUAAGUUATT against Usp9x | inactive: -1.63 |
| GGAAAAUUACCAGAGCACCTT against Ntf3 | inactive: 0.191 |
| GGAAAUAUAUCUGAAAGGGTT against 4930544G21Rik | inactive: 0.229 |
| GGAUCAUCUCUUUGGGCUGTT against Pr1 | inactive: 0.512 |
| GGAUAUCAAGAAAAUGACATT against AW060714 | inactive: -0.459 |
| GGUAAUCUCCAAAAAACCATT against Pira3 | inactive: 0.516 |
| GGAUGAGUUUUUCUAUAGCTT against 4732474A20Rik | inactive: 0.308 |
| GGAUCUGGCCCAAUAUUGUTT against Prss12 | inactive: 0.0684 |
| GGCUCCAAAUCAAACUCUATT against 1300018P11Rik | inactive: 0.0132 |
| GGGAGCCAAACAAAAUUGCTT against Bet1 | inactive: -0.365 |
| GUCAUCAAACUAGGUGCUGTT against Olfr584 | active: 5.09 |
| GGAAAGAAAAAGGUGUCAATT against 2410141M05Rik | inactive: -0.823 |
| GGAAACUCGAAAUAUAUCUTT against 6030463G20Rik | inactive: 0.183 |
| CCACGGAGACAACUUAGUATT against Scfd2 | inactive: -0.745 |
| CUCUGUACUUGGGCAGGAATT against Cyp2c65 | inactive: -2.06 |
| GGCAGAUACUGAUUUUCCGTT against Mcam | inactive: 2.57 |
| GGUCUUUAGGUGCUAAAGATT against C920005C14Rik | inactive: 0.631 |
| GGCAGAAUUCUCAGAGCUUTT against Syn2 | inactive: -2.2 |
| CCCUGAAGGCUUACUUUUUTT against 4930428O21Rik | inactive: 0.296 |
| CGUUUUCAGAGAUGUGCGCTT against Cklfsf5 | inactive: 0.112 |
